Data on 14 molecules can be found in article PMC10903463.

Chains of the proteins cited; added tags and fusions are not shown. Lines headed by an entry give the natural chain unless they say otherwise; changes in a name come on top. A line that says so, or that is headed by a name, gives the form on record, which may keep a tag or linker.
UniProt P0DMW0: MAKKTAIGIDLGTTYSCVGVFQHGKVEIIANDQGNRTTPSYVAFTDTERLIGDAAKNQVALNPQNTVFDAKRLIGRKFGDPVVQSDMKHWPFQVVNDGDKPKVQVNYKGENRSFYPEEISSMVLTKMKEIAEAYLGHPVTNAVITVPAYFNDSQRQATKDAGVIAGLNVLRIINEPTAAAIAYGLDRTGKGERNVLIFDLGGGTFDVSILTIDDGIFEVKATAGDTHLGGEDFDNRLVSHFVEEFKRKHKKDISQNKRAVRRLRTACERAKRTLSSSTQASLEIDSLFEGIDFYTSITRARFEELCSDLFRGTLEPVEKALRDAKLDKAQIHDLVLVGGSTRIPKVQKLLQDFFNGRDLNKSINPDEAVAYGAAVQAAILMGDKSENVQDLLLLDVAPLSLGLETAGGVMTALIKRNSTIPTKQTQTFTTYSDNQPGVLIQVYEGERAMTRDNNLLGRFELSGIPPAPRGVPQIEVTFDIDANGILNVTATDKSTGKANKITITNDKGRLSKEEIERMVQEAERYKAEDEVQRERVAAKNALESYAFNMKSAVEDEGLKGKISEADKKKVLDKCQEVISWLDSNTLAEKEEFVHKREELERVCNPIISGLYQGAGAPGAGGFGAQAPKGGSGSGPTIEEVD
UniProt P11142: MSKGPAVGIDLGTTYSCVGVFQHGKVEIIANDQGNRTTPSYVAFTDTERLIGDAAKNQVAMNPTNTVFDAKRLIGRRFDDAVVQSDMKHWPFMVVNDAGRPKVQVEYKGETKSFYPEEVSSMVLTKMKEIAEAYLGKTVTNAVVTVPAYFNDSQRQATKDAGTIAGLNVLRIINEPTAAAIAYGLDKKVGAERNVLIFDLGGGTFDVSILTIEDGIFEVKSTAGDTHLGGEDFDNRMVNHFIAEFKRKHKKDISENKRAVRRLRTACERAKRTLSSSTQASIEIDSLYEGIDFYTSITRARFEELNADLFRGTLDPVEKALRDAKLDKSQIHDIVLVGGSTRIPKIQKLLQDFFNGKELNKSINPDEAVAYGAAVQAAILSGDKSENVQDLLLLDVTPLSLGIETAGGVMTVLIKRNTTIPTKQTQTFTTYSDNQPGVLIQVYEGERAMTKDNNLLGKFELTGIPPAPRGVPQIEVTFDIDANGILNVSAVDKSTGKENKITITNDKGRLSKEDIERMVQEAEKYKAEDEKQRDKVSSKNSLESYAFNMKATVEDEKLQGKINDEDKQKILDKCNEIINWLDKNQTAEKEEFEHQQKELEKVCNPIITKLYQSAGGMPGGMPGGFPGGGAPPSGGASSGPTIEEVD
SNAP-25 (P60881-2, form named): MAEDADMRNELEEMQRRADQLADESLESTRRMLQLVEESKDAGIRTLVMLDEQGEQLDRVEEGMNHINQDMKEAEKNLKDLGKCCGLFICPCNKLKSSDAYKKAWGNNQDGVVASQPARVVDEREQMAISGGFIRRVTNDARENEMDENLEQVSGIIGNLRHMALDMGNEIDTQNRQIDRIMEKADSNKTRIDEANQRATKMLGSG
UniProt P63045: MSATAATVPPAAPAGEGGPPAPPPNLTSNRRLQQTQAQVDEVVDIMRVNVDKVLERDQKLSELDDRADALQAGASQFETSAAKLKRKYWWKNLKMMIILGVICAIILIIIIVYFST

Changes are numbered by the printed parent chain. These are yes or no findings as the source states them, for the method shown. In cells and extracts the contact can be indirect. A yes stands for co-enrichment or nearness to the bait. Other partners may have been found. Tags and fused reporters may be left off the sequences shown.

The target of experiment [1] is T1, WT CSP-V5-miniTurbo (human) (UniProt Q9H3Z4).
T1 sequence: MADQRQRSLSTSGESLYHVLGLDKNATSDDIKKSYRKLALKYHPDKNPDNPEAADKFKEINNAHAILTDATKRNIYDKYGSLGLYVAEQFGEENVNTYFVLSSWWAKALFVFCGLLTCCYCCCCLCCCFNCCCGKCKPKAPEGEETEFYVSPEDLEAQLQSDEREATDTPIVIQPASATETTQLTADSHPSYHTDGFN
Nature of the experiment: proximity labelling; BioID in living PC12 cells stably expressing WT or L115R CSP-V5-miniTurbo; pull-down of biotinylated proteins on streptavidin beads, western blot of the bound fraction; miniTurbo control and biotin-free control. For orientation: Immunoblotting shows a protein as a band on a membrane.

In experiment [2] the target is T2, L115R CSP-V5-miniTurbo (human) (UniProt Q9H3Z4).
T2 sequence: T1 sequence with L115R
The description is as above.

Experiment [3] deals with T1, WT CSP-V5-miniTurbo (human). In words: proximity labelling; BioID in living PC12 cells stably expressing WT or L115R CSP-V5-miniTurbo; 100 μM biotin overnight; RIPA lysis, streptavidin beads, on-bead tryptic digestion, LC-MS with label-free quantification, three biological repeats; compared with miniTurbo control and no biotin control.
The target of experiment [4] is T2, L115R CSP-V5-miniTurbo (human). The description is as above.
The target in experiment [5] is T1, WT CSP-V5-miniTurbo (human). Nature of the experiment: proximity labelling; BioID in living HEK293T cells transiently transfected with WT or L115R CSP-V5-miniTurbo or the miniTurbo control; biotin-affinity purification on Neutravidin beads, western blot for Hsc70.
In experiment [6] the target is T2, L115R CSP-V5-miniTurbo (human). The description is as above.

In the case of Hsc70 (from UniProt P0DMW0 1-641), the binding result in experiment [1], in experiment [2], in experiment [3] and in experiment [4] was “binds” each time.

For Hsc70 (from UniProt P11142 1-646), the binding result in experiment [5] and in experiment [6] was “binds” in each case.

SNAP-25 (from UniProt P60881-2 1-206): the binding entry in experiment [1], in experiment [2] and in experiment [3] was “binds” throughout.

As to VAMP2 (from UniProt P63045 1-116), the binding entry in experiment [1] and in experiment [3] was “binds” each time.

In the case of syntaxin-1 (rat (endogenous in PC12)), in experiment [1], the binding result is listed as “binds”.

B1: Rab11B (protein, UniProt O35509 1-218)
chain: MGTRDDEYDYLFKVVLIGDSGVGKSNLLSRFTRNEFNLESKSTIGVEFATRSIQVDGKTIKAQIWDTAGQERYRAITSAYYRGAVGALLVYDIAKHLTYENVERWLKELRDHADSNIVIMLVGNKSDLRHLRAVPTDEARAFAEKNNLSFIETSALDSTNVEEAFKNILTEIYRIVSQKQIADRAAHDESPGNNVVDISVPPTTDGQKPNKLQCCQNL
With B1, the binding result in experiment [3] is given as “binds”.

B2: vti1b (protein, UniProt P58200 1-232)
chain: MATSAASSEHFEKLHEIFRGLLEDLQGVPERLLGTAGTEEKKKLVRDFDEKQQEANETLAEMEEELRYAPLTFRNSMMSKLRNYRKDLAKLHREVRSTPLTATPGGRGDLKFGTYTLENEHLNRLQSQRALLLQGTESLNRATQSIERSHRIAAETDQIGSEIIEELGEQRDQLERTKSRLVNTNENLSKSRKILRSMSRKVITNKLLLSVIIVLELAILVGLVYYKFFRHH
As to B2, the binding entry in experiment [3] was “binds”.

B3: Rab3D (protein, UniProt Q63942 1-219)
chain: MASASEPPASPRDAADQNFDYMFKLLLIGNSSVGKTSFLFRYADDSFTPAFVSTVGIDFKVKTVYRHDKRIKLQIWDTAGQERYRTITTAYYRGAMGFLLMYDIANQESFTAVQDWATQIKTYSWDNAQVILVGNKCDLEDERVVSAEDGQRLAGDLGFEFFEASAKENINVKQVFERLVDIICDKMNESLEPSSSPGSNGKGPALGDTPPPQPSSCGC
With B3, in experiment [3], the binding entry is “binds”.

B4: Rab23 (protein, UniProt D3ZRM5 1-237)
chain: MLEEDMEVAIKMVVVGNGAVGKSSMIQRYCKGIFTKDYKKTIGVDFLERQIQVNDEDVRLMLWDTAGQEEFDAITKAYYRGAQACVLVFSTTDRESFEAISSWREKVVAEVGDIPTALVQNKIDLLDDSCIKNEEAEGLAKRLKLRFYRTSVKEDLNVNEVFKYLAEKHLQKLKQQVADEPEQTHSSSNKIGVFNASVGSHLGQNSSSLNGGDVINLRPNKQRTKKTRNPFSSCSVP
On to B4, for which, in experiment [3], the binding result was “binds”.

B5: Fam129b (protein, UniProt B4F7E8 1-747)
chain: MGDVLSTHLDDARRQNIAEKTEKILREFLRFYEDQYGVSLFNSMRHEIEGTGPPQAQLLWRKVPLDERIIFSGNLFQYQEDNKKWRNRFSLVPHNYGLVLYENKVAYERQIPPRAVINSAGYKVLTSLDQYLELVGNSLPGTTSKSGSTPILKCPTQFPLILWHPYARHYYFCMMTEAEQDKWQAVLQDCVRHCNNGIPENSKVEGPAFTDAIRMYRQSKEQYGTWEMLCGNEVQILSNLVMEELGPALKTELGPRLKGKPQERQRQWIQISDAVYRLVFEQAKVHFEEVLCKLQLARPAMEAVIRTDMDQIITSKEHLASKIRAFILPKAEVCVRNHVQPYIPSILEALMVPTSQGFTEVRDVFFKEVTDMNLNVINEGGIDKLGEYMEKLSQLAYHPLKMQSCYEKMEPLRLDGLQQRFDVSSTSVFKQRAQIHMREQMDNAVYTFETLLHQELGKGPTKEELCKSIQRILERVLKKYDYDSSSVRKRFFREALLQITIPFLLKKLAPTCKSELPRFQELIFEDFARFILVENTYEEVVLQTVMKDILQAVKEAAVQRKHNLYRDSVVLHNSDPNLHLLAEGAPIDWGEQYGDGGDGSDSGGSPCPSEAATLTEKRRRAKQVVSVVQDEESGLPFEAGSEPPSPASPDNVTELRGLLAQDLQAESSPPASPLLNGAPVQESPQPMTVLEASPPASPLRHLPPGKAVDLEPPKPSDQETGEKVSSPGSRPPIHTTTEDSAGVQTEF
Consider B5, for which, in experiment [3], the binding result is listed as “binds”.

B6: Tub (protein, UniProt O88808 1-505)
chain: MTSKPHSDWIPYSVLDDEGSNLRQQKLDRQRALLEQKQKKKRQEPLMVQANADGRPRSRRARQSEEQAPLVESYLSSSGSTSYQVQEADSLASVQPGATRPPAPASAKKTKGAAASGGQGGAPRKEKKGKHKGTSGPATLAEDKSEAQGPVQILTVGQSDHAKDAGETAAGGGAQPSGQDLRATMQRKGISSSMSFDEEEDEDENSSSSSQLNSNTRPSSATSRKSTREAASAPSPAAPEPPVDIEVQDLEEFALRPAPQGITIKCRITRDKKGMDRGMYPTYFLHLDREDGKKVFLLAGRKRKKSKTSNYLISVDPTDLSRGGDSYIGKLRSNLMGTKFTVYDNGVNPQKASSSTLESGTLRQELAAVCYETNVLGFKGPRKMSVIVPGMNMVHERVCIRPRNEHETLLARWQNKNTESIIELQNKTPVWNDDTQSYVLNFHGRVTQASVKNFQIIHGNDPDYIVMQFGRVAEDVFTMDYNYPLCALQAFAIALSSFDSKLACE
For the molecule B6, the binding entry in experiment [3] is recorded as “binds”.

B7: syntaxin-7 (protein, UniProt O70257 1-261)
chain: MSYTPGIGGDPAQLAQRISSNIQKITQCSAEIQRTLNQLGTPQDTPELRQQLQQEQQYTNQLAKETDKYIKEFGFLPTTPSEQRQRKIQKDRLVAEFTTALTNFQKVQRQAAEREKEFVARVRASSRVSGGFPEDSSKEKNFVSWESQTQPQVQVQDEEITEDDLRLIHERESSIRQLEADIMDINEIFKDLGMMIHEQGDVIDSIEANVESAEVHVQQANQQLSRAANYQRKSRKTLCIIILILVVGIVIIFFIVWGLKG
With B7, the binding result in experiment [3] is “binds”.

B8: Arhgdia (protein, UniProt Q5XI73 1-204)
chain: MAEQEPTAEQLAQIAAENEEDEHSVNYKPPAQKSIQEIQELDKDDESLRKYKEALLGRVAVSADPNVPNVIVTRLTLVCSTAPGPLELDLTGDLESFKKQSFVLKEGVEYRIKISFRVNREIVSGMKYIQHTYRKGVKIDKTDYMVGSYGPRAEEYEFLTPMEEAPKGMLARGSYNIKSRFTDDDKTDHLSWEWNLTIKKEWKD
Consider B8, for which the binding entry in experiment [3] was “binds”.

B9: SIDT2 (protein, UniProt D3ZEH5 16-832)
chain: VESHLGALGPKNVSQKDAEFERTYADDVNSELVNIYTFNHTVTRNRTEGVRVSVNVLNKQKGAPLLFVVRQKEAVVSFQVPLILRGLYQRKYLYQKVERTLCQPPTKNESEIQFFYVDVSTLSPVNTTYQLRVNRVDNFVLRTGELFTFNTTAAQPQYFKYEFPDGVDSVIVKVTSKKAFPCSVISIQDVLCPVYDLDNNVAFIGMYQTMTKKAAITVQRKDFPSNSFYVVVVVKTEDQACGGSLPFYPFVEDEPVDQGHRQKTLSVLVSQAVTSEAYVGGMLFCLGIFLSFYLLTVLLACWENWRQRKKTLLVAIDRACPESGHPRVLADSFPGSAPYEGYNYGSFENGSGSTDGLVESTGSGDLSYSYQDRSFDPVGARPRLDSMSSVEEDDYDTLTDIDSDKNVIRTKQYLCVADLARKDKRVLRKKYQIYFWNIATIAVFYALPVVQLVITYQTVVNVTGNQDICYYNFLCAHPLGNLSAFNNILSNLGYILLGLLFLLIILQREINHNRALLRNDLYALECGIPKHFGLFYAMGTALMMEGLLSACYHVCPNYTNFQFDTSFMYMIAGLCMLKLYQKRHPDINASAYSAYACLAIVIFFSVLGVVFGKGNTAFWIVFSVIHIISTLLLSTQLYYMGRWKLDSGIFRRILHVLYTDCIRQCSGPLYTDRMVLLVMGNIINWSLAAYGLIMRPNDFASYLLAIGICNLLLYFAFYIIMKLRSGERIKLIPLLCIVCTSVVWGFALFFFFQGLSTWQKTPAESREHNRDCILLDFFDDHDIWHFLSSIAMFGSFLVLLTLDDDLDTVQRDKIYVF
For B9, the binding entry in experiment [3] and in experiment [4] was “binds” each time.
